For one molecule, binding results are on record in article PMC8670446.

These are yes or no findings as the source states them, for the method shown.

The assay has as its target His6-SUMO [SUMO: Q12306]. As to the kind of experiment: BLI; His6-SUMO immobilised on the sensor; JDPs or Ssa1 in solution; background control; both purified. A general note: Biolayer interferometry detects binding as a change in optical thickness at a sensor tip.

B1: Sis1 (protein, UniProt P25294 1-352)
chain: MVKETKLYDLLGVSPSANEQELKKGYRKAALKYHPDKPTGDTEKFKEISEAFEILNDPQKREIYDQYGLEAARSGGPSFGPGGPGGAGGAGGFPGGAGGFSGGHAFSNEDAFNIFSQFFGGSSPFGGADDSGFSFSSYPSGGGAGMGGMPGGMGGMHGGMGGMPGGFRSASSSPTYPEEETVQVNLPVSLEDLFVGKKKSFKIGRKGPHGASEKTQIDIQLKPGWKAGTKITYKNQGDYNPQTGRRKTLQFVIQEKSHPNFKRDGDDLIYTLPLSFKESLLGFSKTIQTIDGRTLPLSRVQPVQPSQTSTYPGQGMPTPKNPSQRGNLIVKYKVDYPISLNDAQKRAIDENF
On to B1, for which the binding entry is recorded as “no binding”.
